In patent US20140256621A1:
No constants are given. Whether binding was seen depends on the method and setting. Binding calls can cover weak binding; strength is not graded here.

Target: Monkey SA (monkey)
Experiment: SPR (BioRad ProteOn XPR36), immobilized albumin

B1: PEP07986-neutral linker-A500 (Compound 2) (protein)
chain: MGSLAEAKEAANAELDSYGVSDFYKRLIDKAKTVEGVEALKDAILAALPTGGGGSGGGSGGGSGGGSASVPIQKVQDDTKTLIKTIVTRINDISHTQSVSSKQKVTGLEFIPGLHPILTLSKMDQTLAVYQQILTSMPSRNVIQISNDLENLRDLLHVLAFSKSCHLPQASGLETLESLGGVLEASGYSTEVVALSRLQGSLQDMLQQLDLSPGC
binding: binds
